We go through one sequence from publication PMC6271157.

Chains of the proteins cited; added tags and fusions are not shown. Lines headed by an entry give the natural chain unless they say otherwise; changes in a name come on top. Residues count along the entry.
UniProt P22629: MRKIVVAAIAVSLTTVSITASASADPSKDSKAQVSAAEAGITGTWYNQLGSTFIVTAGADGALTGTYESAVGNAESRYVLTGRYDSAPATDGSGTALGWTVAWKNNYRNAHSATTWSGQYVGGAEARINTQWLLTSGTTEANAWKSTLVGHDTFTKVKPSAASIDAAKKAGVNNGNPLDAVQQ
UniProt P02769, 25-607: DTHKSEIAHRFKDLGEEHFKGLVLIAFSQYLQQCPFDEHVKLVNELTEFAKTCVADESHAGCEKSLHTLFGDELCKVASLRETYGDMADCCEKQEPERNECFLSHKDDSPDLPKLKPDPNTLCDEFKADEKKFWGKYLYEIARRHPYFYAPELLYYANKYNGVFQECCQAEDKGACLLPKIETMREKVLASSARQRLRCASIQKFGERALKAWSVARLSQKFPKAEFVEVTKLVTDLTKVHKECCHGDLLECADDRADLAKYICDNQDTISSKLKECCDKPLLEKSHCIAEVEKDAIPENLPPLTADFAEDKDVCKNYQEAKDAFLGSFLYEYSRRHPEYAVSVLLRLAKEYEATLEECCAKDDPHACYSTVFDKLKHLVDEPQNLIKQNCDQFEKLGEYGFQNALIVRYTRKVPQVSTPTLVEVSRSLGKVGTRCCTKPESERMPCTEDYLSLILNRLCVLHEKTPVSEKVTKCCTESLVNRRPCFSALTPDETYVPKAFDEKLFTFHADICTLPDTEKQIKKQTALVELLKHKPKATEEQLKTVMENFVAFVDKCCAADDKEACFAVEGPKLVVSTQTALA

No signal at the amounts used counts as a negative.

Series [1] has as its target streptavidin (UniProt P22629). Briefly: ELONA. The settings on record: 5'-biotin (ELONA); 8 mM Na2HPO4, 2 mM NaH2PO4, 2.7 mM KCl, 137 mM NaCl, 4 mM MgCl2, pH 7.4, room temperature, 2 h; wells coated with 10 nM AChE, blocked with 1% BSA; commercial protein; label: 5'-biotin, detected by streptavidin-HRP; single-stranded DNA.
Series [2] concerns the target bovine serum albumin (BSA) (bovine) (UniProt P02769). The series is described as follows: ELONA. The settings on record: 5'-biotin (ELONA); 8 mM Na2HPO4, 2 mM NaH2PO4, 2.7 mM KCl, 137 mM NaCl, 4 mM MgCl2, pH 7.4, room temperature, 2 h; wells coated with 10 nM AChE, blocked with 1% BSA; commercial protein; label: 5'-biotin, detected by streptavidin-HRP; single-stranded DNA.

As for “AAGCATCCGCTGGTTGACTGTAGCTCTGGCAGACGTAGTGTGAAGGTACCAGCTATTGGGATCTTGGACCCTGCGAA [R15/19 (also R15/C19)]”, the binding result in series [1] and in series [2] was “no binding” in each case.
